Test results as given in article PMC12040169 (PLOS Biology, 2025).
This is one part of the list.

Tested on: T1, CTL2-GFP (C. trachomatis L2/434/Bu, GFP-expressing)
T1 construct: L2/434/Bu, GFP-expressing
Parameters: species or system HeLa; Intracellular C. trachomatis growth in HeLa cells, bulk GFP fluorescence relative to DMSO
Conditions: bulk GFP, single well; 28.5 h, 10 µM; inhibitor

SMILES	% of control remaining [%]
Cc1cc2c(=O)n(Cc3ccco3)c(SCc3cc(O)[nH]n3)nc2s1 [CBK268291]	157.213
CN(C)S(=O)(=O)N1CCN(C(=O)N(c2ccccc2)c2ccccc2)CC1 [CBK267466]	142.453
Nc1ncc(-c2cc(C(F)(F)F)cc(C(F)(F)F)c2)nc1-c1ccc(O)cc1 [CBK122503]	88.0823
COc1cc(/C=C/C(=O)O)ccc1OCC(=O)Nc1ccccc1 [CBK265695]	100
CCCCc1ccc(NC(=O)Nc2ccc3ccc(Cl)nc3n2)cc1 [CBK063259]	74.6006
CC(C)CCCC(C)NC(=O)COc1cc(C(=O)O)cc(C(=O)O)c1 (stereo not shown) [CBK296646]	150.487
CCn1c(C)nc2cc(NC(=O)c3oc(C)nc3C)ccc21 [CBK281881]	130.46
Cc1ccc(NC(=O)N(CCC#N)C2CCCCC2)cc1 [CBK156381]	99.0999
NC(=O)CN1CC2(CCN(Cc3cccc4cccnc34)CC2)c2ccccc21 [CBK137021]	78.9176
COc1cc(Br)cc(C2NC(=O)c3cnc(SC)nc3N2)c1O (stereo not shown) [CBK291179]	121.018
COc1ccc(C(=O)c2sc3nc(C)c(C)c(C)c3c2N)cc1OC [CBK074427]	113.176
COCCNc1nc(-c2ccc3[nH]ccc3c2)ccc1C(=O)N1CCN(C)CC1 [CBK105956]	128.021
CCc1nn(C)c2[nH]nc(NC(=O)Cc3csc(C)n3)c12 [CBK305538]	115.559
O=C(O)c1ccc(OCC(O)Cn2nnc3ccccc32)cc1 (stereo not shown) [CBK286616]	114.205
O=C(c1ccco1)N1CCN(C2C3CCCC2CNC3)CC1 (stereo not shown) [CBK284992]	136.731
Cc1oc2c(c1C(=O)NCC(=O)NCC(=O)O)CCCC2 [CBK264015]	100
O=C(CN1CCC(O)(c2ccccc2F)CC1)N1CCCCC1 [CBK281938]	102.853
COc1ccccc1-c1ccccc1CN(C)Cc1ccccc1N1CCOCC1 [CBK286000]	117.398
COc1ccc(C2(CNC(C)(C)CN)CCCC2)cc1OC [CBK008989]	123.674
O=C(COc1ccccc1[N+](=O)[O-])Nc1cc(C(=O)O)cc(C(=O)O)c1 [CBK263983]	124.77
COCCCNC(=O)Cn1c(-c2cccs2)cc2cccnc21 [CBK282559]	119.431
O=C(Cc1ccccc1)Nc1nnc(Cc2ccc3c(c2)OCCO3)o1 [CBK287661]	118.703

Exported with bars between the fields: entries from further up
SMILES | % of control remaining [%]
COc1ccc(C(=O)c2sc3nc(C)c(C)c(C)c3c2N)cc1OC [CBK074427] | 113.176
COCCNc1nc(-c2ccc3[nH]ccc3c2)ccc1C(=O)N1CCN(C)CC1 [CBK105956] | 128.021
